Results on two molecules are retold here after paper PMC12847786.

Assay [1] deals with T1, Cellular communication network factor 1 (CCN1) (UniProt P18406).
T1 sequence: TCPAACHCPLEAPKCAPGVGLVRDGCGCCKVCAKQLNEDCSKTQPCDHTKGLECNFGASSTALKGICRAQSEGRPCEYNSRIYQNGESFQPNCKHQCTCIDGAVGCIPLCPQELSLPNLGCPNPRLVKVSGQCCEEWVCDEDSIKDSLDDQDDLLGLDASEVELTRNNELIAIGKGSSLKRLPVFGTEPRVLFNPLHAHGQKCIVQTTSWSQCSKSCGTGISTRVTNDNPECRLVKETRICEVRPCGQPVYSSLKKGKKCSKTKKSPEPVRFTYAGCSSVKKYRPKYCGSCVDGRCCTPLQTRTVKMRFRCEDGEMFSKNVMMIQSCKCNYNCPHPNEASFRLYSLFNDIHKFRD
Nature of the assay: co-IP; BMDM lysate in IP lysis buffer, antibody or control IgG overnight at 4 °C, magnetic beads, three washes, Western blot; reciprocal Co-IP. In general terms: In western blotting, separated proteins are transferred to a membrane and probed.

Assay [2] concerns the target integrin αvβ5 (mouse (endogenous in BMDMs)). The assay is described as above.

Results are given in words; binding and its absence hold for the method and conditions named. Binding seen in cells or lysates may run through a third protein. Binding calls can cover weak binding; strength is not graded here.

Take “integrin αvβ5 (mouse (endogenous in BMDMs)) (complex)”: the binding result in assay [1] is on record as “binds”.

B1: Cellular communication network factor 1 (CCN1) (protein, UniProt P18406 25-379)
chain: T1 sequence
As to B1, the binding result in assay [2] is “binds”.
